Construct, isoform or probe ends are uncertain for at least one entry. At least one verdict was read from the data and is not stated in words by the source.
Molecular target: SRSF1ΔRS del198-248 (UniProt Q07955)
Test: NMR
Conditions: NMR/ITC: 10 mM NaPO4 pH 7.0, 50 mM L-Arg, 50 mM L-Glu, 5 mM DTT (TCEP for ITC); NMR 313 K (FUS 30 C), ITC 27 C; recombinant protein; residues 1-197

Amino acid sequences for entries named in this document (tags omitted). Residues count along the entry.
UniProt Q07955, 1-197, stated change not applied: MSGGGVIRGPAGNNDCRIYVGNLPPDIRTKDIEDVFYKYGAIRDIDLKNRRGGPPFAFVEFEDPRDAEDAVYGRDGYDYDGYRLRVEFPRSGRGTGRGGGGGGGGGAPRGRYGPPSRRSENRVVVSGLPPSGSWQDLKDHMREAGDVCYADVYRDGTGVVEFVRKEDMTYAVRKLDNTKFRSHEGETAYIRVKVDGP

UCAGAGGA [ssRNA UCAGAGGA]: binds.

— publication PMC8724738, “Exon‐independent recruitment of SRSF1 is mediated by U1 snRNP stem‐loop 3”
